Assay results: patent publication US20030215907
For some assays here: Tags and fusion partners may be left off the protein sequences shown. For some assays here: Construct, isoform or probe ends are uncertain for at least one entry.

Experiments:
[1] = test system: PpuMI restriction endonuclease (native) (Pseudomonas putida); test: enzyme reaction in vitro; conditions: 4 units native PpuMI; purified native protein; protein details: New England Biolabs; only the site is given
[2] = test system: T1, PpuMI restriction endonuclease (recombinant, clones PP2/PP3) (Pseudomonas putida); test: enzyme reaction in vitro; conditions: complete digestion at 1:10 extract dilution, partial at 1:100; protein in a lysate after overexpression; only the site is given
T1 sequence: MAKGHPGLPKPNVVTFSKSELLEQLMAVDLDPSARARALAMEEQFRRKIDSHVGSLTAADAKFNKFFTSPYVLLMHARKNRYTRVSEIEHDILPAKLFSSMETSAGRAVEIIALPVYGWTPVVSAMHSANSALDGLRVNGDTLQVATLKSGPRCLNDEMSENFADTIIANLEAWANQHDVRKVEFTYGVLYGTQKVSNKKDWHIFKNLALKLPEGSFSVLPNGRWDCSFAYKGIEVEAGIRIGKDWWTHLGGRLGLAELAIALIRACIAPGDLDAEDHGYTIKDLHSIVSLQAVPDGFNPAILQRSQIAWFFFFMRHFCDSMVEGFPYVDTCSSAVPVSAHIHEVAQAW

AGATCTTCTTGAGATCCTTTTAGGTCCTGCGTAATCTGCTGCCGGC (double strand)
activity on this sequence [1]: active
activity on this sequence [2]: active
